Two molecules from PMC10166177 can be followed below.

These are yes or no findings as the source states them, for the method shown. In cells and extracts the contact can be indirect. For part of these data: Binding calls can cover weak binding; strength is not graded here. Sequences can lack the tags named with a protein.

Test [1] deals with Flag-tagged RNPS1 ΔS (serine-rich domain deletion). The test can be described thus: co-IP; HEK293 cells (legend; the text says N2a cells) expressing HA-SNIP1 and/or Flag-tagged full-length or domain-truncated RNPS1.
The target in test [2] is Flag-tagged RNPS1 ΔRRM (RNA recognition motif deletion). Described as above.
Test [3] concerns the target Flag-tagged FHA domain-truncated SNIP1 (ΔFHA). The test can be described thus: co-IP; N2a cells expressing Flag-tagged full-length or ΔFHA SNIP1 together with RNPS1-Myc.

B1: HA-SNIP1 (protein, UniProt Q8BIZ6 1-383)
chain: MKAGKSERERSGRRRHRSGDALTTVVVKQERLSPEPVAHRRPDAPAASLSPPAAEPGHSGHRGSRARSPAKKKSKSSGRRSKSPRTKRSQSPHYPMVKVKQEREDHPRRGREDRQHREPSEQEHRRARNSERDRHRGHSRQGRSSDERPVSGQDRDRDSQNLQAQEEERDFHNARRREHRQQNESAGSEAQEVIPRPAGNRSKEVPVKEKPSFELSGALLEDTNTFRGVVIKYSEPPEARIPKKRWRLYPFKNDEVLPVMYIHRQSAYLLGRHRRIADIPIDHPSCSKQHAVFQYRLVEYTRADGTVGRRVKPYIIDLGSGNGTFLNNKRIEPQRYYELKEKDVLKFGFSSREYVLLHESSDTSELDRKEDEDDEEEEMVSDS
With B1, the binding entry in test [1] is given as “no binding”; in test [2], “binds”.

B2: RNPS1-Myc (protein, UniProt Q99M28 1-305)
chain: MDLSGVKKKSLLGVKENNKKSSTRAPSPTKRKDRSDEKSKDRSKDKGATKESSEKDRGRDKTRKRRSASSGSSSTRSRSSSTSSSGSSTSTGSSSGSSSSSASSRSGSSSTSRSSSSSSSSGSPSPSRRRHDNRRRSRSKSKPPKRDEKERKRRSPSPKPTKVHIGRLTRNVTKDHIMEIFSTYGKIKMIDMPVERMHPHLSKGYAYVEFENPDEAEKALKHMDGGQIDGQEITATAVLAPWPRPPPRRFSPPRRMLPPPPMWRRSPPRMRRRSRSPRRRSPVRRRSRSPGRRRHRSRSSSNSSR
Regarding B2, in test [3], the binding entry is reported as “no binding”.
